In patent US20250320282A1 (MABYLON, published 2025) one finds binding data, which are given here for 19 molecules.

Test [1] concerns the target T1, Ara h 2 (Arachis hypogaea allergen 2) (Arachis hypogaea, UniProt Q6PSU2 22-172).
T1 construct: Peanut allergen; also called nAra h 2; natural Ara h 2
T1 sequence: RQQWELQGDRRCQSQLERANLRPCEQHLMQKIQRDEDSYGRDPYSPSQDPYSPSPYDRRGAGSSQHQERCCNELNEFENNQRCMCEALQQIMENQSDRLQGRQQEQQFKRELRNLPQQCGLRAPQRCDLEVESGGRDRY
Briefly: ELISA, Fab titration on coated Ara h 2. Background: In an ELISA, binding on a coated surface is turned into a signal by an enzyme label.

Test [2] has as its target T1, Ara h 2 (Arachis hypogaea allergen 2). In words: ELISA on Ara h2, scFv-Fc.
For test [3] the target is unchanged. In words: ELISA, scFv-Fc.

These are yes or no findings as the source states them, for the method shown. Some results given as binding are weak or reduced against the parent protein; the word gives no strength. Where a sequence is shown, tags or fusion partners need not be part of it.

B1: MY006-2F8 Fab Lg (Fab, V domains shown)
VH: EVQLVESGGGLVKPGGSLRLSCAASGFIFSDYNMNWVRQAPGKGLEWVSSITRSSRTIYYADSVKGRFTISRDNAKNSLHLQMNSLRDADTAVYYCAREDFDVSTGPYYMDVWGNGTTVIVSS
VL: EIVLTQSPGTLSLSPGERATLSCRASQSVSNMFLVWYQQKPGQAPRLLMYGASTRATGIPDRFSGSGSGTDFTLTISRLEPEDFAVYYCQQNGNSPYTFGQGTKLEIK
notes: Germlined variant, IgG1-Fab format; also called 2F8 Lg
As for B1, in test [1], the binding entry is recorded as “binds”.

B2: MY006-2F8 Fab Hg Lf (Fab, V domains shown)
VH: EVQLVESGGGLVQPGGSLRLSCAASGFIFSDYNMNWVRQAPGKGLEWVSSITRSSRTIYYADSVKGRFTISRDNAKNSLYLQMNSLRDEDTAVYYCAREDFDVSTGPYYMDVWGKGTTVTVSS
VL: EIVLTQSPGTLSLSPGERATLSCRASQSVSNMFLVWYQQKPGQAPRLLIYGASTRATGIPDRFSGSGSGTDFTLTISRLEPEDFAVYYCQQNGNSPYTFGQGTKLEIK
notes: Germlined variant, IgG1-Fab format; also called 2F8: Hg/Lf
In the case of B2, in test [1], the binding result is given as “binds”.

B3: 7G6_G4 (Fc fusion, not shown: a dimerising Fc or GST; small tags and cut ends)
scFv: EIVLTQSPLSLPVTLGQPASISCRSSQSLVHRNGYNYLDWFHQRPGQSPRRLIYMASKRASGVPDRFSGSGSGTDFTLKISRVDAEDVGVYYCMQALQTWTFGQGTKLTVLGGGGSGGGGSGGGGSGGGGSQVQLVQSGGGLVQPGGSLRLSCAASGFAFNDYTMHWVRQAPGKGLEWVSAISYGGTNKYYADSVKGRFTISRDNGKKSLYLQMNSLIPEDTALYYCAKDSGYRSLLHWGQGTTVTVSS
As to B3, the binding entry in test [2] and in test [3] was “binds” in each case.

B4: 7G6_G1 (Fc fusion, not shown: a dimerising Fc or GST; small tags and cut ends)
scFv: EIVLTQSPATLSLSPGERATLSCRSSQSLVHRNGYNYLDWYQQKPGQAPRLLIYMASKRASGVPARFSGSGSGTDFTLTISSLEPEDSALYYCMQALQTWTFGGGTKLEIKGGGGSGGGGSGGGGSGGGGSEVQLVETGGGLVQPGGSLRLSCAASGFAFNDYTMHWVRQAPGKGLEWVSAISYGGTNKYYADSVKGRFTISRDNSKDTLYLHMNSLRAEDTAVYYCARDSGYRSLLHWGQGTLVTVSS
On to B4, for which the binding result in test [2] and in test [3] was “binds” throughout.

B5: 7G6_G7 (Fc fusion, not shown: a dimerising Fc or GST; small tags and cut ends)
scFv: EIVLTQSPATLSLSPGERATLSCRSSQSLVHRNGYNYLDWYQQKPGQAPRLLIYMASKRASGVPARFSGSGSGTDFTLTISSLEPEDSALYYCMQALQTWTFGGGTKLEIKGGGGSGGGGSGGGGSGGGGSQVQLVQSGGGLVQPGGSLRLSCAASGFAFNDYTMHWVRQAPGKGLEWVSAISYGGTNKYYADSVKGRFTISRDNSKNTLYLQMNSLRAEDTAVYYCAADSGYRSLLHWGQGTLVTVSS
As for B5, the binding result in test [2] and in test [3] was “binds” each time.

B6: 7G6_G2 (Fc fusion, not shown: a dimerising Fc or GST; small tags and cut ends)
scFv: EIVLTQSPLSLPVTLGQPASISCRSSQSLVHRNGYNYLDWFHQRPGQSPRRLIYMASKRASGVPDRFSGSGSGTDFTLKISRVDAEDVGVYYCMQALQTWTFGQGTKLTVLGGGGSGGGGSGGGGSGGGGSEVQLVETGGGLVQPGGSLRLSCAASGFAFNDYTMHWVRQAPGKGLEWVSAISYGGTNKYYADSVKGRFTISRDNSKDTLYLHMNSLRAEDTAVYYCARDSGYRSLLHWGQGTLVTVSS
Consider B6, for which the binding entry in test [2] and in test [3] was “binds” in each case.

B7: 7G6_G5 (Fc fusion, not shown: a dimerising Fc or GST; small tags and cut ends)
scFv: EIVLTQSPLSLPVTLGQPASISCRSSQSLVHRNGYNYLDWFHQRPGQSPRRLIYMASKRASGVPDRFSGSGSGTDFTLKISRVDAEDVGVYYCMQALQTWTFGQGTKLTVLGGGGSGGGGSGGGGSGGGGSQVQLVQSGGGLVQPGGSLRLSCAASGFAFNDYTMHWVRQAPGKGLEWVSAISYGGTNKYYADSVKGRFTISRDNSKNTLYLQMNSLRAEDTAVYYCAADSGYRSLLHWGQGTLVTVSS
Consider B7, for which the binding entry in test [2] and in test [3] was “binds” in each case.

B8: 7G6_G6 (Fc fusion, not shown: a dimerising Fc or GST; small tags and cut ends)
scFv: EIVLTQSPLSLPVTLGQPASISCRSSQSLVHRNGYNYLDWFHQRPGQSPRRLIYMASKRASGVPDRFSGSGSGTDFTLKISRVDAEDVGVYYCMQALQTWTFGQGTKLTVLGGGGSGGGGSGGGGSGGGGSEVQLVESGGGLVQPGGSLRLSCAASGFAFNDYTMHWVRQAPGKGLEWVSAISYGGTNKYYADSVKGRFTISRDNSKNTLYLQMNSLRAEDTAVYYCAKDSGYRSLLHWGQGTLVTVSS
Consider B8, for which the binding entry in test [2] and in test [3] was “binds” each time.

B9: MY006-17H9 Fab Hf (Fab, V domains shown)
VH: QVQLVESGGGVVQPGRSLRLSCAASGSTLGTYGMHWVRQAPGKGLEWVAIISPDGGHQDYADPVRGRFTISRDNSKNTLYLQMNSLRAEDTAVYYCATTLCARTDCTWVRSDSWGQGTLVTVSS
VL: ANVLTQSPGTLSLSPGERATLSCRASQRVSGDYLAWYQQKRGQAPRLLIYGASSRATGIPDRFSGSGSGTDFTLTISRLEPEDFAVYYCQHYNGPPVTFGQGTKLEIK
Consider B9, for which the binding entry in test [1] is on record as “binds”.

B10: MY006-17H9 Fab Lf (Fab, V domains shown)
VH: QVQLEEYGGGVVQPGRSLRLSCVASGSTLGTYGMHWVRQAPGKGLEWVAIISPDGGHQDYADPVRGRFTVSRDNSKNTLYLQMDNLRVEDTAVYYCATTLCARTDCTWVRSDSWGQGTLVTVSS
VL: EIVLTQSPGTLSLSPGERATLSCRASQRVSGDYLAWYQQKPGQAPRLLIYGASSRATGIPDRFSGSGSGTDFTLTISRLEPEDFAVYYCQHYNGPPVTFGQGTKLEIK
B10: in test [1], the binding entry is given as “binds”.

B11: MY006-17H9 Fab Hg Lf (Fab, V domains shown)
VH: QVQLVESGGGVVQPGRSLRLSCAASGSTLGTYGMHWVRQAPGKGLEWVAIISPDGGHQDYADPVRGRFTVSRDNSKNTLYLQMNSLRAEDTAVYYCATTLCARTDCTWVRSDSWGQGTLVTVSS
VL: EIVLTQSPGTLSLSPGERATLSCRASQRVSGDYLAWYQQKPGQAPRLLIYGASSRATGIPDRFSGSGSGTDFTLTISRLEPEDFAVYYCQHYNGPPVTFGQGTKLEIK
With B11, the binding entry in test [1] is reported as “binds”.

B12: MY006-17H9 Fab Hg_LgN2I (Fab, V domains shown)
VH: QVQLVESGGGVVQPGRSLRLSCAASGSTLGTYGMHWVRQAPGKGLEWVAIISPDGGHQDYADPVRGRFTVSRDNSKNTLYLQMNSLRAEDTAVYYCATTLCARTDCTWVRSDSWGQGTLVTVSS
VL: AIVLTQSPGTLSLSPGERATLSCRASQRVSGDYLAWYQQKPGQAPRLLIYGASSRATGIPDRFSGSGSGTDFTLTISRLEPEDFAVYYCQHYNGPPVTFGQGTKLEIK
On to B12, for which, in test [1], the binding result was “binds”.

B13: MY006-17H9 Fab Hf_LgA1E (Fab, V domains shown)
VH: QVQLVESGGGVVQPGRSLRLSCAASGSTLGTYGMHWVRQAPGKGLEWVAIISPDGGHQDYADPVRGRFTISRDNSKNTLYLQMNSLRAEDTAVYYCATTLCARTDCTWVRSDSWGQGTLVTVSS
VL: ENVLTQSPGTLSLSPGERATLSCRASQRVSGDYLAWYQQKPGQAPRLLIYGASSRATGIPDRFSGSGSGTDFTLTISRLEPEDFAVYYCQHYNGPPVTFGQGTKLEIK
Turning to B13, the binding result in test [1] is listed as “binds”.

B14: MY006-17H9 Fab Hf Lg (Fab, V domains shown)
VH: QVQLVESGGGVVQPGRSLRLSCAASGSTLGTYGMHWVRQAPGKGLEWVAIISPDGGHQDYADPVRGRFTISRDNSKNTLYLQMNSLRAEDTAVYYCATTLCARTDCTWVRSDSWGQGTLVTVSS
VL: ANVLTQSPGTLSLSPGERATLSCRASQRVSGDYLAWYQQKPGQAPRLLIYGASSRATGIPDRFSGSGSGTDFTLTISRLEPEDFAVYYCQHYNGPPVTFGQGTKLEIK
Regarding B14, in test [1], the binding result was “binds”.

B15: MY006-17H9 Fab Lg (Fab, V domains shown)
VH: QVQLEEYGGGVVQPGRSLRLSCVASGSTLGTYGMHWVRQAPGKGLEWVAIISPDGGHQDYADPVRGRFTVSRDNSKNTLYLQMDNLRVEDTAVYYCATTLCARTDCTWVRSDSWGQGTLVTVSS
VL: ANVLTQSPGTLSLSPGERATLSCRASQRVSGDYLAWYQQKPGQAPRLLIYGASSRATGIPDRFSGSGSGTDFTLTISRLEPEDFAVYYCQHYNGPPVTFGQGTKLEIK
Regarding B15, the binding entry in test [1] is reported as “binds”.

B16: MY006-17H9 Fab Hg_LgA1E (Fab, V domains shown)
VH: QVQLVESGGGVVQPGRSLRLSCAASGSTLGTYGMHWVRQAPGKGLEWVAIISPDGGHQDYADPVRGRFTVSRDNSKNTLYLQMNSLRAEDTAVYYCATTLCARTDCTWVRSDSWGQGTLVTVSS
VL: ENVLTQSPGTLSLSPGERATLSCRASQRVSGDYLAWYQQKPGQAPRLLIYGASSRATGIPDRFSGSGSGTDFTLTISRLEPEDFAVYYCQHYNGPPVTFGQGTKLEIK
B16: the binding entry in test [1] is reported as “binds”.

B17: MY006-17H9 Fab Hf_LgN2I (Fab, V domains shown)
VH: QVQLVESGGGVVQPGRSLRLSCAASGSTLGTYGMHWVRQAPGKGLEWVAIISPDGGHQDYADPVRGRFTISRDNSKNTLYLQMNSLRAEDTAVYYCATTLCARTDCTWVRSDSWGQGTLVTVSS
VL: AIVLTQSPGTLSLSPGERATLSCRASQRVSGDYLAWYQQKPGQAPRLLIYGASSRATGIPDRFSGSGSGTDFTLTISRLEPEDFAVYYCQHYNGPPVTFGQGTKLEIK
Turning to B17, the binding result in test [1] is given as “binds”.

B18: MY006-17H9 Fab Hg Lg (Fab, V domains shown)
VH: QVQLVESGGGVVQPGRSLRLSCAASGSTLGTYGMHWVRQAPGKGLEWVAIISPDGGHQDYADPVRGRFTVSRDNSKNTLYLQMNSLRAEDTAVYYCATTLCARTDCTWVRSDSWGQGTLVTVSS
VL: ANVLTQSPGTLSLSPGERATLSCRASQRVSGDYLAWYQQKPGQAPRLLIYGASSRATGIPDRFSGSGSGTDFTLTISRLEPEDFAVYYCQHYNGPPVTFGQGTKLEIK
In the case of B18, in test [1], the binding result is “binds”.

B19: MY006-17H9 Fab Hf Lf (Fab, V domains shown)
VH: QVQLVESGGGVVQPGRSLRLSCAASGSTLGTYGMHWVRQAPGKGLEWVAIISPDGGHQDYADPVRGRFTISRDNSKNTLYLQMNSLRAEDTAVYYCATTLCARTDCTWVRSDSWGQGTLVTVSS
VL: EIVLTQSPGTLSLSPGERATLSCRASQRVSGDYLAWYQQKPGQAPRLLIYGASSRATGIPDRFSGSGSGTDFTLTISRLEPEDFAVYYCQHYNGPPVTFGQGTKLEIK
Take B19: the binding result in test [1] is reported as “binds”.
